Measured values published in patent US20170002081A1.
These are yes or no findings as the source states them, for the method shown. Some binding calls cover weakened binding; strength is not graded here.

Key:
[1] = target: construct pTG18038 (isolated domain 1 of human CSF-1R, Histidine tag) (human) (UniProt P07333); experiment: ELISA, His-tagged construct captured by anti-His antibody, biotinylated antibody
pTG18039 = experiment: ELISA: His-tagged construct captured from CHO supernatant on anti-His tag coated wells; biotinylated antibody; streptavidin-HRP
pTG18040 = experiment: as above

Measured: binding

Chimeric CXIIG6 IgG1 (from UniProt P01857 1-330; P01834 1-107) (antibody)
binds: all assays above
